Some of these results come from one statement about several compounds together.
How the values were obtained:
Staphylococcus aureus = settings: literature reference (13); cited from earlier work
gram-positive aerobes = experiment: Broth microdilution MIC, summary (Example 4); format: cell-based; settings: tested alone

Row | Structure (SMILES) | inhibited the growth (concentration range) (Staphylococcus aureus) | MIC values (range over Gram-positive aerobes) (gram-positive aerobes)
1 | CCCCCc1cc(O)c2c(c1)OC(C)(C)[C@@H]1CCC(C)=C[C@@H]21 [THC, tetrahydrocannabinol] | 1 to 5 µg/mL | 1 to 4 µg/mL
2 | C=C(C)[C@@H]1CCC(C)=C[C@H]1c1c(O)cc(CCCCC)cc1O [CBD, cannabidiol] | 1 to 5 µg/mL | 1 to 4 µg/mL

— patent US11207291B2, “Antimicrobial compositions comprising cannabinoids and methods of using the same” (Graphium Biosciences, Inc., priority 2017, dated 2021)
